Earlier results, collected in patent US5008291A, “Method and composition for achieving chemotherapeutic activity” (Ohio State University Research Foundation, priority 1989, dated 1991).
At least one structure is not confirmed: it was looked up by name or label, or the drawing left a doubt.

Key:
[1] = tested on: 7,12-dimethylbenz(a)anthracene-induced mammary tumorigenesis; settings: preliminary evidence; cited from earlier work
[2] = tested on: sex hormones; settings: effective levels; cited from earlier work

O=C(O)[C@@H](O)[C@@H](O)[C@H](O)[C@@H](O)C(=O)O [glucarate]
inhibition/regression of DMBA-induced rat mammary tumors [1]: inhibits and indeed causes regression
level of circulating steroid hormones, including estrogen or testosterone [2]: slightly reduce the level of circulating steroid hormones
